Counter-ions that a name gives are not always drawn. The list shows a part of the results. Hit calls seldom repeat between salt and free forms of one compound.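 Kinases, fused to nanoluciferase, were expressed in K562 cells; luminescence was measured every 4 h from 2 to 18 h as percent of control (DMSO = 100%, positive control = 0%). A time point is decreased if signal falls significantly (2 sigma). Hits were called by the authors by a rule that is not shown; the count of time points alone does not decide it.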
Columns and labels:
Experiment in all cases: kinase-Nluc reporter destabilization hit call (1 = scored as downregulated) (binary); higher = compound decreases kinase abundance
Settings in all cases: K562; 2-18 h
ABL1 = ABL1 (UniProt P00519)
AKT1 = AKT1 (UniProt P31749)
ALK = ALK (UniProt Q9UM73)
ARAF = ARAF (UniProt P10398)
AURKA = AURKA (UniProt O14965)
AURKB = AURKB (UniProt Q96GD4)
AURKC = AURKC (UniProt Q9UQB9)
BLK = BLK (UniProt P51451)
BMX = BMX (UniProt P51813)
BRAF = BRAF (UniProt P15056)
BRAF_V600E = system: BRAF_V600E
BTK = BTK (UniProt Q06187)
CAMK2A = CAMK2A (UniProt Q9UQM7)
CAMK2G = CAMK2G (UniProt Q13555)
CDK10 = CDK10 (UniProt Q15131)
CDK2 = CDK2 (UniProt P24941)
CDK3 = CDK3 (UniProt Q00526)
CDK4 = CDK4 (UniProt P11802)
CDK5 = CDK5 (UniProt Q00535)
CDK6 = CDK6 (UniProt Q00534)

The chains behind the UniProt entries cited, without tags or fusion partners. Where a name states a change or a piece, a line headed by the entry shows the natural chain unless it says otherwise.
UniProt P00519, whole entry: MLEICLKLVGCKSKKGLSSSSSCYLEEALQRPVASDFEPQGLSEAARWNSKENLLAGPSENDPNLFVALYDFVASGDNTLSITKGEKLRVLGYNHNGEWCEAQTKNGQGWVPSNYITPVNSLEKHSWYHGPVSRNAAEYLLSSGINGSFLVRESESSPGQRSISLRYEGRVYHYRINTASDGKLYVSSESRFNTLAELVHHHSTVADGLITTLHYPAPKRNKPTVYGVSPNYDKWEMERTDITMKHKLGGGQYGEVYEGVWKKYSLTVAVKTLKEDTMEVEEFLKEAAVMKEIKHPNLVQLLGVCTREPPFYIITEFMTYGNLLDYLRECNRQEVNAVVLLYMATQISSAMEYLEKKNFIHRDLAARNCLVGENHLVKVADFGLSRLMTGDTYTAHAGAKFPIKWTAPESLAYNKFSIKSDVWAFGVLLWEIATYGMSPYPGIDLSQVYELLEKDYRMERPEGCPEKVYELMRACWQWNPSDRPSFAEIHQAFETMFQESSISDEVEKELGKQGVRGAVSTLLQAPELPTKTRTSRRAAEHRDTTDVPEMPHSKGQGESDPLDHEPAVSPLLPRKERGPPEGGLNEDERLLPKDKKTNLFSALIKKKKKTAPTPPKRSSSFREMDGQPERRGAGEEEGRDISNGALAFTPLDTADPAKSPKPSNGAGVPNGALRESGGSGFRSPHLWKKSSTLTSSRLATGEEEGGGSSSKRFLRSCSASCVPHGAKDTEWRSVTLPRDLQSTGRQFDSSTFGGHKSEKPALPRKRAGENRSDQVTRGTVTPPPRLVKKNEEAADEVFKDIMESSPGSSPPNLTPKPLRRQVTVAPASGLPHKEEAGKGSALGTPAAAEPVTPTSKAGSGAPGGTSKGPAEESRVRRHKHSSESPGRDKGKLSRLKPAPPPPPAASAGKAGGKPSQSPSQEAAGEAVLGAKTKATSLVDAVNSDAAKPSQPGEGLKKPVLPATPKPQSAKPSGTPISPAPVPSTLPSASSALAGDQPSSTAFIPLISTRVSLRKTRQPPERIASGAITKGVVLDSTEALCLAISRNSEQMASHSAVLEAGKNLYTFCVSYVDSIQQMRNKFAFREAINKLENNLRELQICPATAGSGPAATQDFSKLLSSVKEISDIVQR
UniProt P31749: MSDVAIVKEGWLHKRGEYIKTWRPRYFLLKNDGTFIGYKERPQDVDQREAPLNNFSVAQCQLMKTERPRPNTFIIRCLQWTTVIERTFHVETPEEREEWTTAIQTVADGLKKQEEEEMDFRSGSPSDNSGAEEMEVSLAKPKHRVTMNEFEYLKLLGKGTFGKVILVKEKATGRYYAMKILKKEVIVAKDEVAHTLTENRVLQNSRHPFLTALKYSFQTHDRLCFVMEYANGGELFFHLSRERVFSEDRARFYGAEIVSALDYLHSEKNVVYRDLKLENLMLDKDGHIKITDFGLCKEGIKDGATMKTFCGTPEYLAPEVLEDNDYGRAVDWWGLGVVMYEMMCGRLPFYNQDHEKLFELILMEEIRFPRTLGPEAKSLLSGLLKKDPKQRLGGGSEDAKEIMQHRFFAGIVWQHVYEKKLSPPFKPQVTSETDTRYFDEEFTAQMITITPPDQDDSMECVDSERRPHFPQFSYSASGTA
UniProt O14965: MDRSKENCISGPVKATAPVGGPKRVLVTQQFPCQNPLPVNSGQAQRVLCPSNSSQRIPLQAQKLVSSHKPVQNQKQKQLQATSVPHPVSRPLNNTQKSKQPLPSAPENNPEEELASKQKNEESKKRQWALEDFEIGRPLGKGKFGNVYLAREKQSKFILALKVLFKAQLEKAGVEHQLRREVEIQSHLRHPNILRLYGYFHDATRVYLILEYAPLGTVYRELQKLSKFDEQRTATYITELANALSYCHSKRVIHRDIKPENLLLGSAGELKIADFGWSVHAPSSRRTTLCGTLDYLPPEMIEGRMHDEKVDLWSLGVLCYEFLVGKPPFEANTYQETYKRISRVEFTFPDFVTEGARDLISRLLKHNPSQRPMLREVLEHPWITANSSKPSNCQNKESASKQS
UniProt Q96GD4, whole entry: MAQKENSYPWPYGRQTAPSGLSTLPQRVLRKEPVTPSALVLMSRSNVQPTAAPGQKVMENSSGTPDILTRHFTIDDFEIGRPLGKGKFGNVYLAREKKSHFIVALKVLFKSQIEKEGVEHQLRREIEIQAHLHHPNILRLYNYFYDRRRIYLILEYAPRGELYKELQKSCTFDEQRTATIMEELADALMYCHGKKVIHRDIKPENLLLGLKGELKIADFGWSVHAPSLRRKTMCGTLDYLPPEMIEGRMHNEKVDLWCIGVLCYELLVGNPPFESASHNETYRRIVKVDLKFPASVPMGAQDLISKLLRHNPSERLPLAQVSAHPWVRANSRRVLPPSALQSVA
UniProt Q9UQB9: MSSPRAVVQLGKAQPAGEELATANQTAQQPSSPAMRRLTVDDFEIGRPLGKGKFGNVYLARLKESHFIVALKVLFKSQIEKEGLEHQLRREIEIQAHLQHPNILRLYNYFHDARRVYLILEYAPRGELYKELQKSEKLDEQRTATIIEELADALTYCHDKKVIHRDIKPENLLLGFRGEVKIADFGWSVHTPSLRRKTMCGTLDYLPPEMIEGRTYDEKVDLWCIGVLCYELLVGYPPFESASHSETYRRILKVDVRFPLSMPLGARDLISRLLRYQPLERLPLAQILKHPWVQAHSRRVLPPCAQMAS
UniProt P51813: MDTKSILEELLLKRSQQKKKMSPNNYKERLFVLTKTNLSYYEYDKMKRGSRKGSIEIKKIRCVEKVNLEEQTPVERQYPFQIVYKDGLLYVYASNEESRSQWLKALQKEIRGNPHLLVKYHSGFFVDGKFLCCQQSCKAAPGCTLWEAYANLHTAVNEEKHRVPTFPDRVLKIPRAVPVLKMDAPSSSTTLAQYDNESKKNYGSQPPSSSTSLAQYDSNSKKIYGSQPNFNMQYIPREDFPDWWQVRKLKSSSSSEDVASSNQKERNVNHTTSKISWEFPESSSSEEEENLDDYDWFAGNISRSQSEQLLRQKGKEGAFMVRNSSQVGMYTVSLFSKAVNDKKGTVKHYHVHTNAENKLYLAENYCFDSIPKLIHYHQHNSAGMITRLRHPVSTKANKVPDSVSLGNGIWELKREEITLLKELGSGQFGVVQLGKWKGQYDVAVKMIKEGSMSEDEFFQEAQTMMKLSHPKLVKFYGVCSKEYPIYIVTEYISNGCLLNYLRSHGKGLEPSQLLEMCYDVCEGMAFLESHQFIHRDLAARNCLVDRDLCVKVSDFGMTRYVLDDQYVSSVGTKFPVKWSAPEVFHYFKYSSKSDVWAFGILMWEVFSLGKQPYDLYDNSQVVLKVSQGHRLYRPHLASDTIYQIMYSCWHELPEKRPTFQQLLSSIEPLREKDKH
UniProt Q06187: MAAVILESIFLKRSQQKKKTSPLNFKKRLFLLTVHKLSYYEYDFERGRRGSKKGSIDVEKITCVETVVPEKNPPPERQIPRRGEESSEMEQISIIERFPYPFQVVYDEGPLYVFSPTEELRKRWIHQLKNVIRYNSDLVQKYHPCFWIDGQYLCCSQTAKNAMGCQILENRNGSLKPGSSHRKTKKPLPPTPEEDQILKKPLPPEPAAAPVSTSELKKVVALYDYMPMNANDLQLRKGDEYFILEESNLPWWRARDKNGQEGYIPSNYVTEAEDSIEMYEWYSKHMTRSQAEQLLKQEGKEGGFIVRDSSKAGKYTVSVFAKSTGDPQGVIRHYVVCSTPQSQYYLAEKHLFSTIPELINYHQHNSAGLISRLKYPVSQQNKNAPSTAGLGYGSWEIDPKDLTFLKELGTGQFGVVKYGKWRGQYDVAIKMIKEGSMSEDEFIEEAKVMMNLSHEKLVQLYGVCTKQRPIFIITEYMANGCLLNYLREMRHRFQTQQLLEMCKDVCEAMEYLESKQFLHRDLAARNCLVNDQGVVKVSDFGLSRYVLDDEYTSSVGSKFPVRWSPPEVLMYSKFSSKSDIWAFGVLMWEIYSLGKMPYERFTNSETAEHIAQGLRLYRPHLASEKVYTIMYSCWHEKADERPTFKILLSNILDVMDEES
UniProt Q9UQM7, whole entry: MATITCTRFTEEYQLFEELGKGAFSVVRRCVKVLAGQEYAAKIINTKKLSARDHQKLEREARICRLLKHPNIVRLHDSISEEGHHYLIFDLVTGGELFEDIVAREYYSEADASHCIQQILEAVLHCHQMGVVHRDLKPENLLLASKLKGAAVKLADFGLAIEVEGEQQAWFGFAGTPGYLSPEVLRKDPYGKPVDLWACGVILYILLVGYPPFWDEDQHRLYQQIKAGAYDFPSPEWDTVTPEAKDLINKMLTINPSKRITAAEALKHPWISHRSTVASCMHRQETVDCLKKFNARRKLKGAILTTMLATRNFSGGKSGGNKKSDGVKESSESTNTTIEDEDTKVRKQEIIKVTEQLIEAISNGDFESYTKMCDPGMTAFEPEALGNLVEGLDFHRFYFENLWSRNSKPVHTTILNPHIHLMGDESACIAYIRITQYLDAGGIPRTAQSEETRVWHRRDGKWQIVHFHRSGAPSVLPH
UniProt Q13555: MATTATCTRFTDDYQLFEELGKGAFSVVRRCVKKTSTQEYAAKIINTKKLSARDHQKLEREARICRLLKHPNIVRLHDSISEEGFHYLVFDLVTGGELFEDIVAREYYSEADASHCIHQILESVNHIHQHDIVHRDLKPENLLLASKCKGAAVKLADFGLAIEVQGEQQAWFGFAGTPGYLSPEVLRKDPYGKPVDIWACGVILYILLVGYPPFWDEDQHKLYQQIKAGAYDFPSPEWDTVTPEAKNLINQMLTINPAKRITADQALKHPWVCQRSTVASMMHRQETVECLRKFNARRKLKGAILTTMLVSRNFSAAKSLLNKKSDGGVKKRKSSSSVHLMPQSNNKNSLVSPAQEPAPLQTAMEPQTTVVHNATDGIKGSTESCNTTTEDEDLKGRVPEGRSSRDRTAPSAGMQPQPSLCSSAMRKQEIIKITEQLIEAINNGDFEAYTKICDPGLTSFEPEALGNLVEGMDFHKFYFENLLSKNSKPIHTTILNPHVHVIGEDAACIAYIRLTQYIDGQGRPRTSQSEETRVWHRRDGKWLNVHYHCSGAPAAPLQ
UniProt Q15131: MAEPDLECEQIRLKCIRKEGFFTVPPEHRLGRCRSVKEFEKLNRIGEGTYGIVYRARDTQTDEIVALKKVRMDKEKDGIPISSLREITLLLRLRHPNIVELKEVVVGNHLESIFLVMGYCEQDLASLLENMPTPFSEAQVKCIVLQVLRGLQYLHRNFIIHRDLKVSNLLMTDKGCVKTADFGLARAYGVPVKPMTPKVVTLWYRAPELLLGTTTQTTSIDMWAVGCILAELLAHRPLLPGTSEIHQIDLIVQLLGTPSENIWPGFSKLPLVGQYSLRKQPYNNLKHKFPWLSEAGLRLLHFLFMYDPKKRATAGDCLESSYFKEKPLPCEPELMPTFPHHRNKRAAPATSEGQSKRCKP
UniProt Q00526: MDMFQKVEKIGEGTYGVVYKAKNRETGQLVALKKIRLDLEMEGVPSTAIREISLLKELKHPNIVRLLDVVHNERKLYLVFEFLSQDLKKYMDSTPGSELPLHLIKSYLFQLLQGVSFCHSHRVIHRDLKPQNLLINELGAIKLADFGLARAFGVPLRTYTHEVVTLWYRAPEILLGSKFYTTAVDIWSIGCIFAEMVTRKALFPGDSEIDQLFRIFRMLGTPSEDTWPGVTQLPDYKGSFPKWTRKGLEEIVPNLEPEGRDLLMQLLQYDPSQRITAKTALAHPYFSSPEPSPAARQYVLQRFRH
UniProt P11802: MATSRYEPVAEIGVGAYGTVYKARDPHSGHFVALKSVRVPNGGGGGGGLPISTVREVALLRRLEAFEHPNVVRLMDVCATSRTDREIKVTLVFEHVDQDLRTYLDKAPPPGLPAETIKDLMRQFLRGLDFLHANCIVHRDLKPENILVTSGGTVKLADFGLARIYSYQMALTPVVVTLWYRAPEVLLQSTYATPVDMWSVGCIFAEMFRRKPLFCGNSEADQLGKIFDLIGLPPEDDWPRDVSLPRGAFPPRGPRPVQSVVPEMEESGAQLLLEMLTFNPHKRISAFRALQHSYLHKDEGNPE
UniProt Q00535, whole entry, looked up: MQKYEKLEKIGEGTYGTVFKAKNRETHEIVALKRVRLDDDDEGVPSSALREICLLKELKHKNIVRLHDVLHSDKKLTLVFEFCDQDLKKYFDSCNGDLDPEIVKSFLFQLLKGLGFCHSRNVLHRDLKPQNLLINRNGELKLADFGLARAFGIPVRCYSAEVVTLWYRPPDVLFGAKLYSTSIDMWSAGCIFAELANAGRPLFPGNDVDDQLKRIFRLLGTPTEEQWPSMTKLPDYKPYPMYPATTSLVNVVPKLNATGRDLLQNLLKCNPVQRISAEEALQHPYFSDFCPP

Measured: kinase-Nluc reporter destabilization hit call

O=C1Nc2ccc(C(=O)c3ccco3)cc2C1=Cc1cc(Cl)c(O)c(Cl)c1 (2.5 µM)
inactive: ABL1 = 0 | AKT1 = 0 | ALK 0 | ARAF 0 | AURKA 0 | AURKB 0 | AURKC 0 | BLK 0 | BMX 0 | BRAF 0 | BRAF_V600E 0 | BTK 0 | CAMK2A 0 | CAMK2G 0 | CDK10 = 0 | CDK2 = 0 | CDK3 = 0 | CDK4 = 0 | CDK5 = 0 | CDK6 = 0

NC(=O)c1nnc(N[C@@H]2CCCC[C@@H]2N)nc1Nc1cccc2cc[nH]c12 (10 µM)
inactive: ABL1 = 0 | AKT1 = 0 | ALK 0 | ARAF 0 | AURKA 0 | AURKB 0 | AURKC 0 | BLK 0 | BMX 0 | BRAF 0 | BRAF_V600E 0 | BTK 0 | CAMK2A 0 | CAMK2G 0 | CDK10 = 0 | CDK2 = 0 | CDK3 = 0 | CDK4 = 0 | CDK5 = 0 | CDK6 = 0

O=C1N[C@@H](Cc2c[nH]c3ccccc23)C(=O)N2CCC[C@@H]12 [Brevianamide F] (10 µM)
inactive: ABL1 = 0 | AKT1 = 0 | ALK 0 | ARAF 0 | AURKA 0 | AURKB 0 | AURKC 0 | BLK 0 | BMX 0 | BRAF 0 | BRAF_V600E 0 | BTK 0 | CAMK2A 0 | CAMK2G 0 | CDK10 = 0 | CDK2 = 0 | CDK3 = 0 | CDK4 = 0 | CDK5 = 0 | CDK6 = 0

C[C@@]1(c2ncncc2F)NC(=O)c2cc(-c3cn[nH]c3)ccc21 (10 µM)
inactive: ABL1 = 0 | AKT1 = 0 | ALK 0 | ARAF 0 | AURKA 0 | AURKB 0 | AURKC 0 | BLK 0 | BMX 0 | BRAF 0 | BRAF_V600E 0 | BTK 0 | CAMK2A 0 | CAMK2G 0 | CDK10 = 0 | CDK2 = 0 | CDK3 = 0 | CDK4 = 0 | CDK5 = 0 | CDK6 = 0

Cc1ccc2cc(-c3c(C)ccc(C(=O)c4c(-c5ccccc5)n(C)n(-c5ccccc5)c4=O)c3N)ccc2n1 (2.5 µM)
inactive: ABL1 = 0 | AKT1 = 0 | ALK 0 | ARAF 0 | AURKA 0 | AURKB 0 | AURKC 0 | BLK 0 | BMX 0 | BRAF 0 | BRAF_V600E 0 | BTK 0 | CAMK2A 0 | CAMK2G 0 | CDK10 = 0 | CDK2 = 0 | CDK3 = 0 | CDK4 = 0 | CDK5 = 0 | CDK6 = 0

Copied from the listing, 2 compounds:
NC(=O)c1nnc(N[C@@H]2CCCC[C@@H]2N)nc1Nc1cccc2cc[nH]c12 (10 µM)
inactive: ABL1 = 0 | AKT1 = 0 | ALK 0 | ARAF 0 | AURKA 0 | AURKB 0 | AURKC 0 | BLK 0 | BMX 0 | BRAF 0 | BRAF_V600E 0 | BTK 0 | CAMK2A 0 | CAMK2G 0 | CDK10 = 0 | CDK2 = 0 | CDK3 = 0 | CDK4 = 0 | CDK5 = 0 | CDK6 = 0

O=C1N[C@@H](Cc2c[nH]c3ccccc23)C(=O)N2CCC[C@@H]12 [Brevianamide F] (10 µM)
inactive: ABL1 = 0 | AKT1 = 0 | ALK 0 | ARAF 0 | AURKA 0 | AURKB 0 | AURKC 0 | BLK 0 | BMX 0 | BRAF 0 | BRAF_V600E 0 | BTK 0 | CAMK2A 0 | CAMK2G 0 | CDK10 = 0 | CDK2 = 0 | CDK3 = 0 | CDK4 = 0 | CDK5 = 0 | CDK6 = 0

(more compounds)

Nc1nc2ccc(Cl)cc2c2nc(-c3ccco3)nn12 (10 µM)
inactive: ABL1 = 0 | AKT1 = 0 | ALK 0 | ARAF 0 | AURKA 0 | AURKB 0 | AURKC 0 | BLK 0 | BMX 0 | BRAF 0 | BRAF_V600E 0 | BTK 0 | CAMK2A 0 | CAMK2G 0 | CDK10 = 0 | CDK2 = 0 | CDK3 = 0 | CDK4 = 0 | CDK5 = 0 | CDK6 = 0

O=C(NCCN1CCOCC1)c1cc2c(Oc3ccc(NC(=O)C4(C(=O)Nc5ccc(F)cc5)CC4)cc3)ccnc2[nH]1 [Tyrosine kinase inhibitor] (10 µM)
inactive: ABL1 = 0 | AKT1 = 0 | ALK 0 | ARAF 0 | AURKA 0 | AURKB 0 | AURKC 0 | BLK 0 | BMX 0 | BRAF 0 | BRAF_V600E 0 | BTK 0 | CAMK2A 0 | CAMK2G 0 | CDK10 = 0 | CDK2 = 0 | CDK3 = 0 | CDK4 = 0 | CDK5 = 0 | CDK6 = 0

O=c1[nH]c(=O)n([C@@H]2O[C@H](CO)[C@@H](O)[C@@H]2O)cc1/C=C/Br [Sorivudine] (10 µM)
inactive: ABL1 = 0 | AKT1 = 0 | ALK 0 | ARAF 0 | AURKA 0 | AURKB 0 | AURKC 0 | BLK 0 | BMX 0 | BRAF 0 | BRAF_V600E 0 | BTK 0 | CAMK2A 0 | CAMK2G 0 | CDK10 = 0 | CDK2 = 0 | CDK3 = 0 | CDK4 = 0 | CDK5 = 0 | CDK6 = 0

C[C@@H](c1ccc(F)cc1)n1nnc2cnc3ccc(-c4ccc5ocnc5c4)cc3c21 (10 µM)
inactive: ABL1 = 0 | AKT1 = 0 | ALK 0 | ARAF 0 | AURKA 0 | AURKB 0 | AURKC 0 | BLK 0 | BMX 0 | BRAF 0 | BRAF_V600E 0 | BTK 0 | CAMK2A 0 | CAMK2G 0 | CDK10 = 0 | CDK2 = 0 | CDK3 = 0 | CDK4 = 0 | CDK5 = 0 | CDK6 = 0

CCS(=O)(=O)c1ncc(Cl)c(C(=O)N(Cc2ccc(Cl)cc2)Cc2ccco2)n1 (2.5 µM)
inactive: ABL1 = 0 | AKT1 = 0 | ALK 0 | ARAF 0 | AURKA 0 | AURKB 0 | AURKC 0 | BLK 0 | BMX 0 | BRAF 0 | BRAF_V600E 0 | BTK 0 | CAMK2A 0 | CAMK2G 0 | CDK10 = 0 | CDK2 = 0 | CDK3 = 0 | CDK4 = 0 | CDK5 = 0 | CDK6 = 0

COc1cc2c(cc1OC)CN(S(=O)(=O)c1ccc(OC)c(N3CCN(C(=O)c4ccc(F)cc4C(F)(F)F)CC3)c1)CC2 (10 µM)
inactive: ABL1 = 0 | AKT1 = 0 | ALK 0 | ARAF 0 | AURKA 0 | AURKB 0 | AURKC 0 | BLK 0 | BMX 0 | BRAF 0 | BRAF_V600E 0 | BTK 0 | CAMK2A 0 | CAMK2G 0 | CDK10 = 0 | CDK2 = 0 | CDK3 = 0 | CDK4 = 0 | CDK5 = 0 | CDK6 = 0

O=C(Nc1cn[nH]c1-c1ccccn1)c1nn(C2CCNCC2)cc1Cl (10 µM)
inactive: ABL1 = 0 | AKT1 = 0 | ALK 0 | ARAF 0 | AURKA 0 | AURKB 0 | AURKC 0 | BLK 0 | BMX 0 | BRAF 0 | BRAF_V600E 0 | BTK 0 | CAMK2A 0 | CAMK2G 0 | CDK10 = 0 | CDK2 = 0 | CDK3 = 0 | CDK4 = 0 | CDK5 = 0 | CDK6 = 0

COCCNc1nc2ccc(C#CC3(O)CCCCC3)cc2n1-c1ccnc(N)n1 (10 µM)
inactive: ABL1 = 0 | AKT1 = 0 | ALK 0 | ARAF 0 | AURKA 0 | AURKB 0 | AURKC 0 | BLK 0 | BMX 0 | BRAF 0 | BRAF_V600E 0 | BTK 0 | CAMK2A 0 | CAMK2G 0 | CDK10 = 0 | CDK2 = 0 | CDK3 = 0 | CDK4 = 0 | CDK5 = 0 | CDK6 = 0

NC(=O)c1ccc2[nH]ccc2c1 (10 µM)
inactive: ABL1 = 0 | AKT1 = 0 | ALK 0 | ARAF 0 | AURKA 0 | AURKB 0 | AURKC 0 | BLK 0 | BMX 0 | BRAF 0 | BRAF_V600E 0 | BTK 0 | CAMK2A 0 | CAMK2G 0 | CDK10 = 0 | CDK2 = 0 | CDK3 = 0 | CDK4 = 0 | CDK5 = 0 | CDK6 = 0

CN1CCN(c2cnc3c(C4CCN(C(=O)c5ccc(OC(F)(F)F)cc5N)CC4)ncnc3c2)CC1 (10 µM)
inactive: ABL1 = 0 | AKT1 = 0 | ALK 0 | ARAF 0 | AURKA 0 | AURKB 0 | AURKC 0 | BLK 0 | BMX 0 | BRAF 0 | BRAF_V600E 0 | BTK 0 | CAMK2A 0 | CAMK2G 0 | CDK10 = 0 | CDK2 = 0 | CDK3 = 0 | CDK4 = 0 | CDK5 = 0 | CDK6 = 0

CCNc1nc(Nc2cc(F)c(C(=O)N3CCOCC3)cc2OC)ncc1C(F)(F)F [GNE-7915 (tosylate)] (10 µM)
inactive: ABL1 = 0 | AKT1 = 0 | ALK 0 | ARAF 0 | AURKA 0 | AURKB 0 | AURKC 0 | BLK 0 | BMX 0 | BRAF 0 | BRAF_V600E 0 | BTK 0 | CAMK2A 0 | CAMK2G 0 | CDK10 = 0 | CDK2 = 0 | CDK3 = 0 | CDK4 = 0 | CDK5 = 0 | CDK6 = 0

Cc1ccccc1-n1c([C@H](C)Nc2nc(N)nc3nc[nH]c23)nc2cccc(C)c2c1=O [CAL-130 (Hydrochloride)] (10 µM)
inactive: ABL1 = 0 | AKT1 = 0 | ALK 0 | ARAF 0 | AURKA 0 | AURKB 0 | AURKC 0 | BLK 0 | BMX 0 | BRAF 0 | BRAF_V600E 0 | BTK 0 | CAMK2A 0 | CAMK2G 0 | CDK10 = 0 | CDK2 = 0 | CDK3 = 0 | CDK4 = 0 | CDK5 = 0 | CDK6 = 0

OCCn1cc(-c2ccc3c(c2)CC/C3=N\O)c(-c2ccncc2)n1 (10 µM)
inactive: ABL1 = 0 | AKT1 = 0 | ALK 0 | ARAF 0 | AURKA 0 | AURKB 0 | AURKC 0 | BLK 0 | BMX 0 | BRAF 0 | BRAF_V600E 0 | BTK 0 | CAMK2A 0 | CAMK2G 0 | CDK10 = 0 | CDK2 = 0 | CDK3 = 0 | CDK4 = 0 | CDK5 = 0 | CDK6 = 0
